Experimental data published in the supplement of paper PMC12009310.
Counter-ions that a name gives are not always drawn. ± gives the standard deviation of the averaged measurements. The list shows a part of the results. Part of the spread comes from offsets between plates or batches.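 The cells are a mouse kidney inner medullary collecting duct line, silenced either for the ciliary gene Rpgrip1l or with a non-targeting control siRNA.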

Key:
[1] = tested on: mIMCD3; assay: robust z score of cell number vs plate controls; higher = more cells (less cytotoxic); conditions: 10 µM, 48 h
[2] = tested on: mIMCD3; assay: robust z score of cilia incidence (% cells with single cilium) vs plate controls; higher = more ciliated cells; conditions: 10 µM; 48 h; siRNA: siScr
[3] = tested on: mIMCD3; assay: robust z score of cilia incidence (% cells with single cilium) vs plate controls; higher = more ciliated cells (rescue of cilia loss); conditions: 10 µM; 48 h; siRNA: siRpgrip1l

Compound	robust z score of cell number ([1]; siRNA: siRpgrip1l)	robust z score of cell number ([1]; siRNA: siScr)	robust z score of cilia incidence [2]	robust z score of cilia incidence [3]
CC(C)C[C@@H](N)C1(c2ccc(Cl)cc2)CCC1	-9.65 ± 6.2	-2.77 ± 5.5	1.7 ± 0.19	-12.7 ± 9.3
O=c1ccc2[nH]cc(C3=CCNCC3)c2[nH]1	-5.92 ± 2.7	-0.259 ± 2	-1.99 ± 0.84	-15.2 ± 0.8
c1ccc2c(c1)[I+]c1ccccc1-2 [Diphenyleneiodonium chloride]	-110 ± 78	-141 ± 120	-19.5 ± 1.6	-52.6 ± 8.4
CC(CN)CC(=O)O (stereo unspecified) [3-Methyl-GABA]	7.73 ± 12	1.52 ± 0.2	0.31 ± 1.3	-5.19 ± 2
NC(N)=Nc1ccc2[nH]c3c(c2c1)C[C@@]1(O)[C@H]2Cc4ccc(O)c5c4[C@@]1(CCN2CC1CC1)[C@H]3O5 [GNTI dihydrochloride]	-24.7 ± 34	2.35 ± 0.65	2.69 ± 2.2	-7.46 ± 1.5
CN(C(=O)Cc1ccccc1)C(CN1CCCC1)c1ccccc1 (stereo unspecified) [N-MPPP Hydrochloride]	-4.35 ± 2.7	-1.32 ± 3.6	0.336 ± 0.67	-5.71 ± 1.4
CCCN(C/C=C/I)C1CCc2ccc(O)cc2C1 (stereo unspecified) [7-Hydroxy-PIPAT maleate]	-1.08 ± 3.7	-0.143 ± 0.91	2.59 ± 1.3	-7.56 ± 3.4
Clc1cccc(SC2CCNCC2)n1 [Anpirtoline hydrochloride]	2.29 ± 0.52	-0.782 ± 1.5	-1.56 ± 2.3	-6.28 ± 1.8
CN1CCN(c2ccc3ccccc3n2)CC1 [N-Methylquipazine dimaleate]	-0.0486 ± 4.4	5.2 ± 7.2	-4.53 ± 0.6	-25.8 ± 2.2
Cc1onc(O)c1CC(N)C(=O)O (racemic) [(RS)-AMPA hydrobromide]	-7.38 ± 4.4	-1.87 ± 0.88	0.0329 ± 0.77	-14.7 ± 2.9
C=CCN1C[C@H](C)N([C@H](c2ccc(C(=O)N(CC)CC)cc2)c2cccc(OC)c2)C[C@H]1C	-6.95 ± 3.8	-4.61 ± 1.6	-9.6 ± 2.9	-13.5 ± 4.2
c1ccc2c(c1)OCC(C1=NCCN1)O2 (stereo unspecified) [Idazoxan hydrochloride]	-30.2 ± 9.7	-22 ± 0.96	-6.9 ± 6.6	-12.3 ± 1.7
COc1cc(N)c(Cl)cc1C(=O)NC1CN2CCC1CC2 (stereo unspecified) [Zacopride hydrochloride]	-0.941 ± 0.75	0.854 ± 4	-3.41 ± 1.2	-16.2 ± 9.6
O=[N+]([O-])c1cc(O)c(O)c([N+](=O)[O-])c1	-39.2 ± 34	-20.8 ± 8	-2.49 ± 2	-5.31 ± 0.059
O=C1Nc2cc(Cl)c(Cl)cc2N2CCNCC12 (stereo unspecified)	-3.45 ± 3.8	-3.42 ± 3.8	2.71 ± 4.5	-16.5 ± 12
C[C@@H]1O[C@@H](O[C@H]2C[C@@H](O)[C@]3(CO)[C@H]4[C@H](O)C[C@]5(C)[C@@H](C6=CC(=O)OC6)CC[C@]5(O)[C@@H]4CC[C@]3(O)C2)[C@H](O)[C@H](O)[C@H]1O [Ouabain]	-7.38 ± 6.2	-3.46 ± 0.72	-0.559 ± 2.8	-11.8 ± 2.3
C[C@@H]1CC[C@H]2[C@@H](C)C(=O)O[C@@H]3O[C@@]4(C)CC[C@@H]1[C@]32OO4 [Artemisinin]	-11.5 ± 4.4	-52.4 ± 44	1.61 ± 4.9	-18.5 ± 1.6
O[C@H]1[C@H](O)[C@@H](O)CN2CC[C@H](O)[C@H]12 [Castanospermine]	-0.607 ± 0.94	3.97 ± 3.5	5.66 ± 2.3	-7.31 ± 4
O=C(O)/C=C/CO [trans-4-Hydroxycrotonic acid]	-4.34 ± 0.044	5.26 ± 9.4	1.93 ± 0.024	-10.1 ± 0.44
COc1ccc(C(=O)N2CCCC2=O)cc1 [Aniracetam]	1.29 ± 0.85	0.234 ± 1.7	-2.56 ± 1.1	-6.78 ± 3.2
CN1[C@@H]2CC[C@H]1C[C@@H](OC(c1ccc(F)cc1)c1ccc(F)cc1)C2 [3 α-Bis-(4-fluorophenyl) methoxytropane hydrochloride]	-30.38 ± 0.056	-29.3 ± 14	-45.2 ± 9.5	-27.3 ± 5
COC1(C[S@+]([O-])c2ccccc2)CCN(CCc2c[nH]c3ccc(F)cc23)CC1	-98.9 ± 95	-2.86 ± 1.7	-4.31 ± 3.1	-17.3 ± 4.5
CC1=NN=C(c2ccc(N)cc2)c2cc3c(cc2C1)OCO3	-86.8 ± 94	-20.9 ± 7	-9.55 ± 5.1	-287 ± 160
Cn1c2c(c3ccccc31)CCNCC2	-0.17 ± 0.72	-2.06 ± 4.4	1.25 ± 0.41	-7.58 ± 5.2
CC(C)n1cnc2c(C(=O)N[C@H]3CN4CCC3CC4)cc(Cl)cc21	-17.1 ± 0.89	-16.8 ± 8.1	-31.7 ± 6.3	-25.4 ± 5.1
Cc1cc(SCc2sc(-c3ccc(C(F)(F)F)c(F)c3)nc2C)ccc1OCC(=O)O	-40.8 ± 27	-54.6 ± 29	-15.3 ± 6.4	-40.5 ± 26
N#Cc1ccc(N2CCN(C(=O)COc3ccc4[nH]cc(CCN)c4c3)CC2)cc1 [Donitriptan hydrochloride]	-49.3 ± 66	-3.3 ± 6.8	-1.51 ± 2.5	-8.56 ± 3.5
CCCN(CCC)C1Cc2cc(OC)c(OC)cc2C1	-83.7 ± 61	-5.09 ± 0.47	-5.09 ± 6.5	-14.2 ± 3
N[C@@]1(C(=O)O)CC[C@@H](C(=O)O)C1	11.2 ± 7.9	-1.02 ± 6.4	-0.382 ± 2	-6.96 ± 6.9

Eight consecutive compounds already listed, quoted:
Compound	robust z score of cell number ([1]; siRNA: siRpgrip1l)	robust z score of cell number ([1]; siRNA: siScr)	robust z score of cilia incidence [2]	robust z score of cilia incidence [3]
O=C(O)/C=C/CO [trans-4-Hydroxycrotonic acid]	-4.34 ± 0.044	5.26 ± 9.4	1.93 ± 0.024	-10.1 ± 0.44
COc1ccc(C(=O)N2CCCC2=O)cc1 [Aniracetam]	1.29 ± 0.85	0.234 ± 1.7	-2.56 ± 1.1	-6.78 ± 3.2
CN1[C@@H]2CC[C@H]1C[C@@H](OC(c1ccc(F)cc1)c1ccc(F)cc1)C2 [3 α-Bis-(4-fluorophenyl) methoxytropane hydrochloride]	-30.38 ± 0.056	-29.3 ± 14	-45.2 ± 9.5	-27.3 ± 5
COC1(C[S@+]([O-])c2ccccc2)CCN(CCc2c[nH]c3ccc(F)cc23)CC1	-98.9 ± 95	-2.86 ± 1.7	-4.31 ± 3.1	-17.3 ± 4.5
CC1=NN=C(c2ccc(N)cc2)c2cc3c(cc2C1)OCO3	-86.8 ± 94	-20.9 ± 7	-9.55 ± 5.1	-287 ± 160
Cn1c2c(c3ccccc31)CCNCC2	-0.17 ± 0.72	-2.06 ± 4.4	1.25 ± 0.41	-7.58 ± 5.2
CC(C)n1cnc2c(C(=O)N[C@H]3CN4CCC3CC4)cc(Cl)cc21	-17.1 ± 0.89	-16.8 ± 8.1	-31.7 ± 6.3	-25.4 ± 5.1
Cc1cc(SCc2sc(-c3ccc(C(F)(F)F)c(F)c3)nc2C)ccc1OCC(=O)O	-40.8 ± 27	-54.6 ± 29	-15.3 ± 6.4	-40.5 ± 26
